From patent US10350213B2 (AI Therapeutics, Inc., priority 2015, dated 2019)

Tests used:
[1] = test system: SUDHL-4 (Human Diffuse Large B Cell Lymphoma -GCB); assay: CellTiterGlo cell viability assay; type: cell-based; details: 72 h, SU-DHL-4, three-day assay
[2] = test system: WSU-DLCL2 (Human Diffuse Large B Cell Lymphoma -GCB); assay: CellTiterGlo cell viability assay; type: cell-based; details: WSUDLCL2, 72 h, three-day assay

IC50 [1]: > 20000 nM | IC50 [2]: > 10000 nM
SMILES: CCN(c1cc(-c2ccc(CN3CCOCC3)cc2)cc(C(=O)NCc2c(C)cc(C)[nH]c2=O)c1C)C1CCOCC1 [EPZ-6438]
